Measurements from patent US20230110249A1 (University of California, published 2023).
No constants are given. Whether binding was seen depends on the method and setting. Some binding calls cover weakened binding; strength is not graded here.

Chains of the proteins cited; added tags and fusions are not shown. Residues count along the entry.
UniProt Q01973, residues 30-406: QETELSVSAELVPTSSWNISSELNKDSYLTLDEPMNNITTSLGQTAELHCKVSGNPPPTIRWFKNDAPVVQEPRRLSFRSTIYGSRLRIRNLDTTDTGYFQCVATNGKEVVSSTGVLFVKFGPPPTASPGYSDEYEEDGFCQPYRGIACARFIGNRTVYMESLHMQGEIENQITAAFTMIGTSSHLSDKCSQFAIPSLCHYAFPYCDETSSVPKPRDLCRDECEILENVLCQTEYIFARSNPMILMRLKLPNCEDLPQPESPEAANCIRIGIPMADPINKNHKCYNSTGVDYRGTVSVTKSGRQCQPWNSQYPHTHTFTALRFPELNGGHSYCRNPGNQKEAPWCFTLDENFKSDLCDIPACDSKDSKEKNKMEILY

Columns and labels:
[1] = biological target: T1, R22 peptide conjugated to keyhole limpet hemocyanin; assay: binding to KLH-conjugated peptide (FIG. 21)
T1 sequence (peptide, C-terminal cysteine conjugated to keyhole limpet hemocyanin (KLH) with MBS): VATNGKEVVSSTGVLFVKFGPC

R22 peptide = biological target: T2, R22 peptide; assay: peptide binding (FIG. 21)
T2 sequence (peptide): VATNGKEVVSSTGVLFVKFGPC

[2] = biological target: recombinant human ROR1 extracellular domain (human) (UniProt Q01973); assay: immunoblot, non-denaturing PAGE and SDS PAGE (FIG. 11)
[3] = biological target: recombinant human ROR1 extracellular domain (human) (UniProt Q01973); assay: immunoblot, non-denaturing PAGE and SDS-PAGE (FIG. 11)
[4] = biological target: human ROR1 protein (construct not stated) (human) (UniProt Q01973); assay: native western (FIG. 10)

Measured: binding

B1: anti-human ROR1 antibody 99961 (antibody, V domains shown)
VH: EIQLQQSGPVLVKPGASVKVSCKASGYAFTAYNIHWVRQSHGKRLEWIGSFDPYDGGSSYNQKFKDKATLTVDKSSTTAYMHLNSLTSEDSAVYYCARGWYYFDYWGHGTTLTVSS
VL: DVQITQSPSYLAASPGETITINCRASKSISKYLAWYQEKPGKTNKLLIYSGSTLQSGIPSRFRGSGSGTDFTLTISSLEPEDFAMYYCQQHDESPYTFGEGTKLEIK
notes: also called Ab9991
binds: all assays above
